The values that follow are results of earlier work, collected in US9561238B2, “Pharmaceutical compositions comprising estetrol derivatives for use in cancer therapy” (Donesta Bioscience B. V., priority 2002, dated 2017).

The conditions of the series: endogenous; cited from earlier work.

`C[C@]12CC[C@@H]3c4ccc(O)cc4CC[C@H]3[C@@H]1[C@@H](O)[C@@H](O)[C@@H]2O` [E4, 1,3,5(10)-estratrien-3,15α,16α,17β-tetrol]: the “Unconjugated estetrol level in fetal relative to maternal plasma” value is recorded as “about 12 times”.
